Assay results: PubChem BioAssay AID540256 (National Center for Advancing Translational Sciences (NCATS), 2011)
The campaign covered roughly 300,000 compounds. About 3,700 (1.2%) were called active. Inconclusive results, whose numbers are uncertain, are shown with a selection of clear calls. Calls follow the shape of the full dose curve; tested in HEK293 cells. Potencies of inconclusive entries are doubtful fits and often do not repeat.

Test: qHTS for Inhibitors of binding or entry into cells for Lassa Virus; also: nearly all actives have a fitted effect of over 50% in size
Settings: Lassa virus pseudotype entry inhibition, cell reporter; series mostly up to 37.9 µM
Potency is read from the fitted curve at half-maximal effect.

SMILES	Potency
CCOc1ccc(-c2cccc(NS(=O)(=O)c3ccccc3C(F)(F)F)c2)nn1	inactive
Cc1ccc(NC(=O)Cn2cc(C(=O)c3ccco3)c3ccccc32)cc1	inconclusive: 3.16 µM [inhibitor, full curve, poor fit]
O=S(=O)(c1ccc2nc(Nc3cccc(F)c3)ccc2c1)N1CCCC1	inconclusive: 1.12 µM [inhibitor, full curve]
O=C(CSc1ncccn1)n1c2c(c3ccccc31)CCCC2	inactive
O=[N+]([O-])c1ccc(Cl)c(CN2CCN(c3ncccn3)CC2)c1	inconclusive: 0.631 µM [inhibitor, partial curve, poor fit]
CC(C)c1ccc(Nc2ccc(C(=O)O)cc2[N+](=O)[O-])cc1	inconclusive: 1.26 µM [activator, full curve, poor fit]
CN(C)CC1CCCCC1C1(O)c2ccccc2CSc2sccc21 (stereo not drawn)	inconclusive: 35.5 µM [inhibitor, single point]
CCN(CC)CCCNC(=O)c1c(O)c2ccccc2n(Cc2ccccc2)c1=O	inconclusive: 20 µM [inhibitor, single point]
CCCCCCN1C[C@H](n2cc(COC(=O)c3ccccc3)nn2)[C@@H](O)C[C@H]1c1ccc(OC)cc1	inconclusive: 0.28 µM [inhibitor, full curve, poor fit]
CCN(Cc1ccccc1)Cc1c(O)ccc2oc(C)c(C(=O)Nc3ccccc3C)c12	inconclusive: 12.6 µM [inhibitor, single point]
COc1ccc(-n2ccnc(NCCc3ccc(Cl)cc3)c2=O)cc1OC	inconclusive: 22.4 µM [inhibitor, single point]
CCc1ccccc1-n1ncc(C(=O)Nc2ccc(OC)cc2)c1C	inconclusive: 12.6 µM [inhibitor, partial curve, poor fit]
CCCCSCCCNC(=O)c1c[nH]c2ccc(S(=O)(=O)Nc3cccc(OC)c3)cc2c1=O	inconclusive: 39.8 µM [inhibitor, partial curve, poor fit]
Cc1ccc(S(=O)(=O)NCC(c2ccc(N(C)C)cc2)N2CCc3ccccc32)cc1 (stereo not drawn)	inactive
CCN(c1ccccc1)S(=O)(=O)c1ccc(Oc2ccccc2)c(N)c1	inconclusive: 12.6 µM [inhibitor, partial curve, poor fit]
COc1ccc(C(=O)N2CCOC2CNC(=O)C(=O)NCc2ccccc2Cl)cc1 (stereo not drawn)	inactive
COc1ccc(CN2C(=O)CC(Cc3cc(C)cc(C)c3)C2=O)cc1OC (stereo not drawn)	inactive
COc1cc(C(=O)Nc2cccc3c2CCCC3)cc(OC)c1OC	inconclusive: 3.55 µM [inhibitor, partial curve, poor fit]

2 records drawn at random from those above, as already listed:
SMILES	Potency
CCOc1ccc(-c2cccc(NS(=O)(=O)c3ccccc3C(F)(F)F)c2)nn1	inactive
COc1ccc(-n2ccnc(NCCc3ccc(Cl)cc3)c2=O)cc1OC	inconclusive: 22.4 µM [inhibitor, single point]
